Consider three molecules from publication PMC12817906, “SVCV phosphoprotein hijacks phase separation to immobilize the IRF3-TBK1 signaling axis and suppress interferon antiviral immunity” (Journal of Virology, 2025).

The chains behind the UniProt entries cited, without tags or fusion partners.
UniProt A0ACM8QAS8: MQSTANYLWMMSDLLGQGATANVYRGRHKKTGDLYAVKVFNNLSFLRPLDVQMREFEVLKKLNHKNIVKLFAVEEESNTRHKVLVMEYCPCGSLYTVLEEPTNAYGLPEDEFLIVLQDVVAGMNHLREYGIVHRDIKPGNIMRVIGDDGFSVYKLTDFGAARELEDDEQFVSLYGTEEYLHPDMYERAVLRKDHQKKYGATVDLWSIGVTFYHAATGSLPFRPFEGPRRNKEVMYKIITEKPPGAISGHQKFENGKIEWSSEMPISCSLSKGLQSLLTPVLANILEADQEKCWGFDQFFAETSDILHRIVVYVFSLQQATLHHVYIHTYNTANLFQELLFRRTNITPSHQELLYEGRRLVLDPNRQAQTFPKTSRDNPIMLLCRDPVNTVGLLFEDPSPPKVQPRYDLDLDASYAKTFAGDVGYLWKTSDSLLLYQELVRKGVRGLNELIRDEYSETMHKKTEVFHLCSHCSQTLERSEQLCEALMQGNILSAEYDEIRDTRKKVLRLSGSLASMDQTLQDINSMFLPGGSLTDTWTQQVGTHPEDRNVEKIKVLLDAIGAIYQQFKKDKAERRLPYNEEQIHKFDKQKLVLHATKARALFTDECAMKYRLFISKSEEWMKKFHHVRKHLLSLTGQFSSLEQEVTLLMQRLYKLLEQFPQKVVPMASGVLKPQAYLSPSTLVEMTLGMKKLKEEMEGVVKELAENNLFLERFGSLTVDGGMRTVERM

Assay in all cases: co-IP; HEK293T cells co-transfected with the two tagged plasmids; lysate incubated with tag antibody overnight at 4°C, protein A-agarose beads, Western blot; in Fig. 4G cells treated with 1,6-HEX before lysis
In assay [1] the target is T1, EGFP-SVCV-P full length (spring viremia of carp virus (SVCV)) (UniProt Q91DS2).
T1 sequence: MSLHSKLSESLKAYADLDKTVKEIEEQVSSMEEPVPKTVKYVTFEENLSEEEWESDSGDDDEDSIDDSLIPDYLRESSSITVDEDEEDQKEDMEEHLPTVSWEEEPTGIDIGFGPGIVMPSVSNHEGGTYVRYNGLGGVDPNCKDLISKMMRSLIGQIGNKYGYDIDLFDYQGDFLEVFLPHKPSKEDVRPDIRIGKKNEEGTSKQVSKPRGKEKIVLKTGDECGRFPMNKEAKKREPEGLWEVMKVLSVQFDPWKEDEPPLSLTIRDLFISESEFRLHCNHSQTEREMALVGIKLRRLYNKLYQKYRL

Assay [2] has as its target T2, Myc-tagged SVCV phosphoprotein (SVCV-P) (spring viremia of carp virus (SVCV)) (UniProt Q91DS2).
T2 sequence: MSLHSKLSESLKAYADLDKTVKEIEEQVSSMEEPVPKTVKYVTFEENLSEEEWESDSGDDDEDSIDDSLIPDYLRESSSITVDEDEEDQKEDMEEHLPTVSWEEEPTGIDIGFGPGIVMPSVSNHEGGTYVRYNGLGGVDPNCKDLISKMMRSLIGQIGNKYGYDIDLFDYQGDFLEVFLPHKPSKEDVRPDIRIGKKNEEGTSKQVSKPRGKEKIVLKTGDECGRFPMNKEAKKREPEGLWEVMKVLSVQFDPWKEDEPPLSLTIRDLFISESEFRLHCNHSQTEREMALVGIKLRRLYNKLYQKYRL

The target in assay [3] is EGFP-TBK1 full length (zebrafish) (zebrafish).

Results are given in words; binding and its absence hold for the method and conditions named. In cells and extracts the contact can be indirect. Some binding calls cover weakened binding; strength is not graded here. Sequences can lack the tags named with a protein.

For “Flag-tagged zebrafish TBK1 (from UniProt A0ACM8QAS8 1-727) (enzyme)”, the binding entry in assay [1] and in assay [2] was “binds” throughout.

Consider “HA-tagged zebrafish TBK1 (from UniProt A0ACM8QAS8 1-727) (enzyme)”, for which, in assay [2], the binding entry is given as “binds”.

B1: purified recombinant SVCV-P (His-tagged) (natural protein)
chain: MSLHSKLSESLKAYADLDKTVKEIEEQVSSMEEPVPKTVKYVTFEENLSEEEWESDSGDDDEDSIDDSLIPDYLRESSSITVDEDEEDQKEDMEEHLPTVSWEEEPTGIDIGFGPGIVMPSVSNHEGGTYVRYNGLGGVDPNCKDLISKMMRSLIGQIGNKYGYDIDLFDYQGDFLEVFLPHKPSKEDVRPDIRIGKKNEEGTSKQVSKPRGKEKIVLKTGDECGRFPMNKEAKKREPEGLWEVMKVLSVQFDPWKEDEPPLSLTIRDLFISESEFRLHCNHSQTEREMALVGIKLRRLYNKLYQKYRL
notes: phosphoprotein (P) of spring viremia of carp virus; The MST methods say only 'purified SVCV-P'; the His-only construct is surmised (EGFP-GST, EGFP-His and baculovirus EGFP-His forms were also made); also called pET28a-SVCV-P-His; source: E. coli BL21 (DE3), purified (Ni-NTA)
Consider B1, for which the binding result in assay [3] is listed as “binds”.
